# Test results published in patent US20170079979A1, “THERAPY FOR SOLID TUMORS” (Children's Hospital Medical Center, priority 2014, published 2017).
# For at least one compound, name, drawing or mass did not settle the structure.
# Key:
# RT4 cells = experiment: RT4 bladder cancer cell survival with EGF and PLX4032 (FIG. 4); format: cell-based; settings: addition of EGF
# Experimental: To determine the effect of c-Fos and Dusp-1 inhibition with the tyrosine kinase inhibitor PLX4032, RT4 cells were assayed, as a model bladder cancer, shown in FIG. 4. This cell line was derived from bladder cancer patients, which has amplification of EGFR.
# H1703 cells = experiment: H1703 lung sarcoma cell survival with EGF and sunitinib (FIG. 3); format: cell-based; settings: addition of EGF, sunitinib
# Experimental: H1703 cell line was derived from the lung sarcoma, which is driven by PDGFRA as this cell line has amplified the PDGFRA. This group of patients is treated with sunitinib.
smiles,measurement,setting,value
"CCCS(=O)(=O)Nc1ccc(F)c(C(=O)c2c[nH]c3ncc(-c4ccc(Cl)cc4)cc23)c1F [PLX4032, vemurafenib]",TKI response on addition of growth factor,RT4 cells,confers resistance
CCN(CC)CCNC(=O)c1c(C)[nH]c(/C=C2\C(=O)Nc3ccc(F)cc32)c1C [sunitinib],TKI response on addition of growth factor,H1703 cells,confer resistance
